# Data from PubChem BioAssay AID2718 (Broad Institute, 2010).
# Protein sequences, listed by entry. Tags and fused reporters are not part of them.
# UniProt O15379, whole entry, looked up: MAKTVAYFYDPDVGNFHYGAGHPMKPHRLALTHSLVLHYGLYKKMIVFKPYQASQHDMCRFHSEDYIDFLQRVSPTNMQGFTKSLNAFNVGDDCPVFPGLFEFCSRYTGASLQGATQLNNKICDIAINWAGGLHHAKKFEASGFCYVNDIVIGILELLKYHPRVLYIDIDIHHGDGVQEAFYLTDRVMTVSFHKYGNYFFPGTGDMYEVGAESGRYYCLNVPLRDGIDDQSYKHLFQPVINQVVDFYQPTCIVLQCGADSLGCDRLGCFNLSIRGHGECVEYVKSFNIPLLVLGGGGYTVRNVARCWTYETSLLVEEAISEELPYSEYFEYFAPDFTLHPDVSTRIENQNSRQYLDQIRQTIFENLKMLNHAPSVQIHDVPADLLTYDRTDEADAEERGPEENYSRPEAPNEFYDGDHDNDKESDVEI
# Out of some 320,000 compounds screened, about 480 (0.15%) were called active. The inconclusive results got no clear call from the source; some entries with a clear call stand among them for comparison. No stated cut-off is given here; in the data, active means inhibition above about 26% (passing the limit was not always enough); inconclusive means no clear call, values can overlap the other calls. Where a structure was tested more than once in an assay, its records may differ in their call.
# Molecular target: Histone deacetylase 3 (Homo sapiens) (UniProt O15379)
# Assay: HDAC3 deacetylase inhibitors, primary screen, biochemical, fluorescence, cell-free homogeneous (AID 2718)
# Conditions: recombinant HDAC3, fluorogenic peptide/trypsin coupled, at 8.3 µM, stronger effect = higher value
row,Structure (SMILES),inhibition
1,O=C1CN(C(=O)COC(=O)Cc2ccccc2F)c2ccccc2N1,inconclusive: 20.2%
2,Cc1cc(C)cc(N(CCC#N)C(=O)COC(=O)C2CCN(c3ccc(C(F)(F)F)cn3)CC2)c1,inconclusive: 16.9%
3,Cn1c(SCC(=O)N/N=C/C=C\c2ccccc2[N+](=O)[O-])nc2ccccc21,inconclusive: 18.1%
4,CCCCN(C(=O)c1cc(CC)c(C)s1)c1c(N)n(CCC)c(=O)[nH]c1=O,inactive: 0.179%
5,CCNc1nc(NCC)n2c(SCC(=O)c3ccccc3F)nnc2n1,inactive: 0.14%
6,COc1cc(CCCN2CCNC[C@@H]2Cc2ccc(O)cc2)cc(OC)c1OC,inactive: -2.71%
7,Cc1ccc(CN(c2ccc(C(=O)NCc3ccc4c(c3)OCO4)cc2)S(C)(=O)=O)cc1,inactive: -1.16%
8,Cc1ccc(Cc2c(C)nc3nc(SCC(=O)NCCCN4CCCCCC4)nn3c2C)cc1,active: 33%
9,CC12CCC(c3c(C(=O)N4CCOCC4)nn(-c4ccccc4)c31)C2(C)C (stereo not given),inconclusive: 16.3%
10,Cc1nnc(SCC(=O)NNC(=O)COc2ccc(Cl)cc2)n1C,inconclusive: 20.1%
11,O=C(Nc1ccccc1O)c1ccc([N+](=O)[O-])cc1,active: 52.8%
12,Cc1ccc(CNC(=O)[C@H](C)NC(=O)C2CCN(C(=O)[C@@H]3CCCN3C(=O)OC(C)(C)C)CC2)cc1,inactive: 0.789%
13,CC(NC(=O)c1ccc2c(c1)OCO2)C(c1cccs1)N1CCN(c2ccccc2)CC1 (stereo not given),inactive: -0.6%
14,O=C(Oc1ccccc1N1C(=O)CCC1=O)c1ccco1,inconclusive: 14.9%
15,COc1ccc(C2CC23N=C(c2ccccc2)OC3=O)cc1 (stereo not given),inconclusive: 39.6%
16,COc1ccc(CCC(=O)Nc2cc(S(=O)(=O)N3CCOCC3)ccc2OC(C)C)cc1,inactive: 0.945%
17,C[C@@]12CC(=O)NC1N(C(=O)c1cccc(C(F)(F)F)c1)C(c1ccccc1OC(=O)c1cccc(C(F)(F)F)c1)C2 (stereo not given in full),active: 41.8%
18,CCC(=O)N1CCc2cc(S(=O)(=O)N3CCCC3)ccc21,inconclusive: 17.2%
19,CCN(c1ccccc1C)S(=O)(=O)c1cc2c3c(c1)CCN3C(=O)CC2,inconclusive: 26%
20,O=Cc1c(N2CCN(CCO)CC2)nc2ccccn2c1=O,inconclusive: 18%
21,CS(=O)(=O)N(Cc1ccco1)Cc1ccccc1Cl,inconclusive: 17.4%
22,Cc1ccc(NCCc2ccc(C)nc2)cc1,inactive: 1.25%

row,Structure (SMILES),inhibition
1,COc1cnc(-c2ccccc2)nc1Oc1cccc(C)c1C,inconclusive: 15.3%
2,CC(C)CN(C(=O)C1CC1)C1CCS(=O)(=O)C1 (stereo not given),inconclusive: 21.9%
3,OC(COc1ccc(Br)cc1)CN1CCC(Cc2ccccc2)CC1 (stereo not given),inconclusive: 20.6%
4,Oc1ccccc1C=NC1=NN(c2cccc(C(F)(F)F)c2)CC1,inconclusive: 19%
5,COCCCN(Cc1ccco1)C(=O)Cn1ncc2c([nH]c3ccccc32)c1=O,inconclusive: 15.9%
6,Cc1cc(NC(=O)C2CCCC2)nc2c1c(=O)oc1ccccc12,inactive: 6.26%
7,COc1ccc(S(=O)(=O)N2CCN(C3Cc4ccccc4C3)CC2)cc1,inconclusive: 27.1%
8,CC(C)NC(=O)CN(Cc1ccc(F)cc1)C(=O)CCC(=O)Nc1nccs1,inactive: 0.935%
9,COc1cc(OC)cc(C(=O)n2cnnc2N)c1,inconclusive: 81%
10,Cc1ccc(Nc2nc(N/N=C/c3c[nH]c4ccccc34)nc(N3CCOCC3)n2)cc1,active: 25.5%
11,COc1ccccc1NC(=O)CCc1nnc2ccc(N3CCN(C)CC3)nn12,inconclusive: 15.9%
12,COc1cccc(-c2nc(CS(=O)CC(=O)NCCCOC(C)C)c(C)o2)c1 (stereo not given),inactive: 2.87%
13,COc1ccc(-n2nc3c(N4CCC(C(=O)NCC(C)c5ccccc5)CC4)nnc(C)c3c2C)cc1 (stereo not given),inconclusive: 21%
14,O=C(CC1SC(N2CCCCC2)=NC1=O)Nc1cccc(C(=O)Nc2ncccc2O)c1 (stereo not given),active: 64.8%
15,Cc1ccccc1-c1nnn(CC(=O)N(C)CC(=O)Nc2ccccc2C(F)(F)F)n1,inactive: 7.5%
16,NC(=NC(=O)c1cccc(C(F)(F)F)c1)c1ccc(C(F)(F)F)cn1,inconclusive: 19.1%
17,CC1Cc2ccccc2N1C(=O)C1CC(=O)N(c2ccccc2)C1 (stereo not given),inactive: -0.072%
18,CC(C)NCC(O)COCCOc1ccc(Cl)cc1 (stereo not given),inactive: 1.66%
19,Cc1ccc(-c2csc(NC(=O)CN3CC(C)OC(C)C3)n2)cc1 (stereo not given),inconclusive: 13%
20,COc1cc2c(cc1OC)C(c1cccc([N+](=O)[O-])c1)N(C(=O)CCC(=O)O)CC2 (stereo not given),inactive: -3.36%
21,O=C(Nc1cccc(S(=O)(=O)N2CCCCC2)c1)C1=NN(c2ccccc2)C(=O)CC1,inconclusive: 16.9%
22,O=C(NCCc1ccccc1Cl)C1CCN(S(=O)(=O)c2cccs2)CC1,inconclusive: 13.4%

row,Structure (SMILES),inhibition
1,CCN(CC)S(=O)(=O)N1CCC(C(=O)NCc2ccc(C)cc2)CC1,inconclusive: 30.8%
2,COC(=O)CCCC(=O)N1CCCC(C(=O)c2ccccc2SC)C1 (stereo not given),inconclusive: 16.6%
3,CC(C)c1ccccc1OCC(O)CN1CCN(S(=O)(=O)c2ccc([N+](=O)[O-])cc2)CC1 (stereo not given),inactive: -1.12%
4,CC(O)CN1CCN(C(=O)CN2C(=O)NC(c3ccccc3)(c3ccccc3)C2=O)CC1 (stereo not given),inconclusive: 15.4%
5,CC(=O)c1cc2c(cc1NC(=O)c1cc(C)nn1-c1ccccc1)OCO2,inactive: 0.999%
6,COc1ccccc1OCC(O)Cn1nc(C)cc1C (stereo not given),inconclusive: 18.2%
7,Cc1ccc(S(=O)(=O)N(C)C)cc1NC(=S)Nc1ccc2[nH]c(=O)[nH]c2c1,inconclusive: 16.2%
8,O=S1(=O)CCOCCN1Cc1ccccc1,inactive: 1.38%
9,COCc1nnc(NS(=O)(=O)c2ccc([N+](=O)[O-])cc2)s1,inconclusive: 11%
10,C#CCOCCOCCOCCNc1nc(N2CCN(C(=O)[C@H]([C@@H](C)CC)n3cc([C@@H](N)Cc4ccc(O)cc4)nn3)CC2)nc(N2CCN(C(=O)[C@H](Cc3cc4ccccc4[nH]3)n3cc([C@@H](N)C(C)CC)nn3)CC2)n1 (stereo not given in full),inconclusive: 10.8%
11,O=C(c1ncn[nH]1)N1CCN(c2nc(-c3ccccc3)cs2)CC1,inactive: -1.49%
12,Cc1c(CN(C)C)c2c(n1Cc1ccccc1)C(=O)c1ccccc1-2,inactive: -0.217%
13,CCN(CC)c1ccc(/C=C(\C#N)C(=O)NCc2ccccc2)cc1,inconclusive: 20.1%
14,Cc1csc(NC(=O)Cc2coc3cc(C)c(C(C)C)cc23)n1,inactive: 9.93%
15,CC1C(=O)NN=C1C(=O)N/N=C\c1ccc(O)cc1O (stereo not given),inactive: 3.96%
16,Cc1ccccc1S(=O)(=O)Cc1ccc(C(=O)O)o1,inconclusive: 12.6%
17,COc1ccc(N(CC(=O)NCCc2ccccc2)C(=O)c2csnn2)cc1OC,inconclusive: 25.2%
18,CN1CCN(CC(C)(C)NS(=O)(=O)c2ccc(Cl)cc2)CC1,inconclusive: 17.1%
19,CC1(C)CC(=O)C2=C(C1)Nc1ccccc1[S@]2=O,inactive: 5%
20,COc1cc(/C=C2\N=C(C)OC2=O)cc(OC)c1OC,active: 36.1%
21,Cc1oc(-c2ccccc2F)nc1CS(=O)(=O)CC(=O)NCCCN1CC(C)CC(C)C1 (stereo not given),inconclusive: 13.8%
22,NCc1oc(-c2ccccc2)cc1C(=O)O,inconclusive: 20.8%

# Ordered by count of non-hydrogen atoms (largest number first): some entries from above
row,Structure (SMILES),inhibition
2,Cc1cc(C)cc(N(CCC#N)C(=O)COC(=O)C2CCN(c3ccc(C(F)(F)F)cn3)CC2)c1,inconclusive: 16.9%
3,Cn1c(SCC(=O)N/N=C/C=C\c2ccccc2[N+](=O)[O-])nc2ccccc21,inconclusive: 18.1%
19,CCN(c1ccccc1C)S(=O)(=O)c1cc2c3c(c1)CCN3C(=O)CC2,inconclusive: 26%
6,Cc1cc(NC(=O)C2CCCC2)nc2c1c(=O)oc1ccccc12,inactive: 6.26%

# Laid out differently: entries from further up.
row | Structure (SMILES) | inhibition
7 | Cc1ccc(S(=O)(=O)N(C)C)cc1NC(=S)Nc1ccc2[nH]c(=O)[nH]c2c1 | inconclusive: 16.2%
8 | O=S1(=O)CCOCCN1Cc1ccccc1 | inactive: 1.38%

# (continued)

row,Structure (SMILES),inhibition
1,CN(c1cccc(NC(=O)c2ccc(Cl)c(S(=O)(=O)N3CCOCC3)c2)c1)S(C)(=O)=O,inactive: -3.92%
2,O=C(c1ccncc1)N1CCN(S(=O)(=O)c2ccc(F)cc2)CC1,inactive: 2.09%
3,CCCCCCCNc1nc(Cl)nc(NCCO)n1,inconclusive: 19.2%
4,O=C(Nc1ccccc1)c1ccc(NCCc2ccccc2)c([N+](=O)[O-])c1,inactive: -5.5%
5,CN1CCN(S(=O)(=O)c2cccc(C(=O)Nc3cc(C(F)(F)F)ccc3N3CCCCC3)c2)CC1,inconclusive: 8.79%
6,COc1cc(CNc2ccc(CNc3ncn[nH]3)cc2)cc(Cl)c1OCc1ccccc1,inactive: -4.01%
7,COC(=O)[C@@]12CCCCN1[C@H](c1ccc(-c3ccccc3)c(OC)c1)[C@H]1C(=O)N(C)C(=O)[C@H]12,inconclusive: 24.7%
8,O=C(CCc1ccc(S(=O)(=O)N2CCCCC2)cc1)c1nnc(-c2ccccc2)o1,inconclusive: 13.1%
9,O/N=C(/CCc1ccccc1)c1ccc2c(c1)OCCO2,inconclusive: 15.2%
10,CC(=O)c1c(C)c(C)c2n1CCn1c(C)ccc1-2,inconclusive: 21.3%
11,COc1ccc(Br)cc1/C=N/NC(=O)CNC(=O)C1COc2ccccc2O1 (stereo not given),inactive: -9.8%
12,CN1CCN(c2ccc(S(=O)(=O)N3CCOCC3)cc2NC(=O)CSCc2ccccc2)CC1,inactive: 2.18%
13,COc1ccc(S(=O)(=O)Nc2c(O)ccc3ccccc23)cc1OC,inactive: 2.85%
14,Cc1ccc(C2=NN(C(=O)CCC(=O)O)C(c3cn(-c4ccccc4)nc3-c3ccc(C)cc3)C2)cc1 (stereo not given),inactive: 4.36%
15,S=c1[nH]nc(-c2cc(-c3ccccc3)n[nH]2)n1/N=C/c1cccc(Cl)c1,inconclusive: 28%
16,C[c-]1[c-](C)[c-](C)[c-](C)[c-]1C.[Fe].c1cc2nccc(N3CCCC3)[c-]2c1 (stereo not given),active: 29.4%
17,O=C(COC(=O)Cn1c(C(F)(F)F)nc2ccccc21)Nc1ccc2c(c1)OCCO2,inconclusive: 26.4%
18,O=c1c2ccccc2nc2n1CCCCC2,inconclusive: 16.8%
19,CN(Cc1ccccc1)C(=O)c1[nH]cnc1C(=O)N[C@@H](Cc1ccccc1)C(=O)OCc1ccccc1,active: 32.6%
